Laboratory results: article PMC5382891 (Scientific Reports, 2017)

Amino acid sequences for entries named in this document (tags omitted). A change or cut given only in a name is not applied to a line headed by its entry.
UniProt Q13519: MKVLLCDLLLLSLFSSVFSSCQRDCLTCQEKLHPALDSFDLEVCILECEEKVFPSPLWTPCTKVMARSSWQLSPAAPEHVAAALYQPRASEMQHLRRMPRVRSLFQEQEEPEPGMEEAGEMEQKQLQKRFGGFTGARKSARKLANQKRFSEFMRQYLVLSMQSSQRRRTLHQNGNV

Test: peptide synthesis
Details: whole synthesis, 220 nm

With “N/OFQ(1-11)-NH2 (FGGFTGARKSA; Nociceptin C-terminal amide; UniProt Q13519 130-140, looked up, fragment)” the “final HPLC purity” value was over 99.9%.
